Experimental data: paper PMC10996005 (Journal of the American Chemical Society, 2024)
For part of these data: HELM strings list residues between dots; [ac] is acetyl, [am] amide, other brackets name non-standard units. [ ]: non-standard residue; d: D form. Pen = CC(C)(S)[C@H](N)C(=O)O; Phg = N[C@H](C(=O)O)c1ccccc1; Nle = CCCC[C@H](N)C(=O)O; Nva = CCC[C@H](N)C(=O)O; Abu = CC[C@H](N)C(=O)O; Aib = CC(C)(N)C(=O)O

Legend:
[1] = general procedure: Fmoc solid-phase peptide synthesis; Fmoc-Leu-Wang resin; DIC/HOBt; conditions: whole synthesis
[2] = general procedure: Fmoc solid-phase peptide synthesis; Wang resin preloaded with the first amino acid (Novabiochem); DIC/HOBt; conditions: for final HPLC purity: analytical HPLC; for isolated yield: overall
[3] = general procedure: Fmoc solid-phase peptide synthesis; Fmoc-Val-Wang resin; DIC/HOBt; conditions: whole synthesis, scale 0.2 mmol
[4] = general procedure: Fmoc solid-phase peptide synthesis; Fmoc-Ile-Wang resin; DIC/HOBt; conditions: whole synthesis
[5] = whole synthesis, scale of the general procedure 0.05-0.2 mmol

Substance | final HPLC purity [2, 5] [% purity] | isolated yield [2, 5] [% overall yield] | isolated mass ([4]; scale 0.1 mmol) [mg] | further results
PEPTIDE1{I.A.F.C.R.L}$PEPTIDE1,PEPTIDE1,6:R2-1:R1$$$V2.0 | 93 | 14 |  | isolated mass ([1]; scale 0.1 mmol): 10 mg
PEPTIDE1{I.F.C.R.L.L}$PEPTIDE1,PEPTIDE1,6:R2-1:R1$$$V2.0 | 95 | 56 |  | isolated mass ([1]; scale 0.2 mmol): 83 mg
PEPTIDE1{I.I.A.C.R.L}$PEPTIDE1,PEPTIDE1,6:R2-1:R1$$$V2.0 | 86 | 46 |  | isolated mass ([1]; scale 0.1 mmol): 31 mg
PEPTIDE1{I.I.F.C.R.L}$PEPTIDE1,PEPTIDE1,6:R2-1:R1$$$V2.0 | 99 | 40 |  | isolated mass ([1]; scale 0.2 mmol): 60 mg
PEPTIDE1{I.I.F.C.R.V}$PEPTIDE1,PEPTIDE1,6:R2-1:R1$$$V2.0 | 96 | 12 |  | isolated mass [3]: 18 mg
cyclo(ALIIFC) (SMILES CC[C@H](C)[C@@H]1NC(=O)[C@H](CC(C)C)NC(=O)[C@H](C)NC(=O)[C@H](CS)NC(=O)[C@H](Cc2ccccc2)NC(=O)[C@H]([C@@H](C)CC)NC1=O) | 90 | 10 |  | isolated mass ([1]; scale 0.2 mmol): 13 mg
cyclo(ARLIIF) (SMILES CC[C@H](C)[C@@H]1NC(=O)[C@H](CC(C)C)NC(=O)[C@H](CCCNC(=N)N)NC(=O)[C@H](C)NC(=O)[C@H](Cc2ccccc2)NC(=O)[C@H]([C@@H](C)CC)NC1=O) | 94 | 46 |  | isolated mass ([1]; scale 0.1 mmol): 33 mg
cyclo(CKLIIF) (SMILES CC[C@H](C)[C@@H]1NC(=O)[C@H](CC(C)C)NC(=O)[C@H](CCCCN)NC(=O)[C@H](CS)NC(=O)[C@H](Cc2ccccc2)NC(=O)[C@H]([C@@H](C)CC)NC1=O) | 91 | 7 |  | isolated mass ([1]; scale 0.2 mmol): 10 mg
cyclo(CKLLIF) (SMILES CC[C@H](C)[C@@H]1NC(=O)[C@H](CC(C)C)NC(=O)[C@H](CC(C)C)NC(=O)[C@H](CCCCN)NC(=O)[C@H](CS)NC(=O)[C@H](Cc2ccccc2)NC1=O) | 97 | 16 |  | isolated mass ([1]; scale 0.2 mmol): 23 mg
cyclo(CRAIIF) (SMILES CC[C@H](C)[C@@H]1NC(=O)[C@H](C)NC(=O)[C@H](CCCNC(=N)N)NC(=O)[C@H](CS)NC(=O)[C@H](Cc2ccccc2)NC(=O)[C@H]([C@@H](C)CC)NC1=O) | 90 | 10 |  | isolated mass ([1]; scale 0.1 mmol): 7 mg
cyclo(CRLAIF) (SMILES CC[C@H](C)[C@@H]1NC(=O)[C@H](C)NC(=O)[C@H](CC(C)C)NC(=O)[C@H](CCCNC(=N)N)NC(=O)[C@H](CS)NC(=O)[C@H](Cc2ccccc2)NC1=O) | 99 | 33 |  | isolated mass ([1]; scale 0.1 mmol): 23 mg
cyclo(CRLIIY) (SMILES CC[C@H](C)[C@@H]1NC(=O)[C@H](CC(C)C)NC(=O)[C@H](CCCNC(=N)N)NC(=O)[C@H](CS)NC(=O)[C@H](Cc2ccc(O)cc2)NC(=O)[C@H]([C@@H](C)CC)NC1=O) | 85 | 66 | 50 | 
cyclo(CRLII[Phg]) (SMILES CC[C@H](C)[C@@H]1NC(=O)[C@H](CC(C)C)NC(=O)[C@H](CCCNC(=N)N)NC(=O)[C@H](CS)NC(=O)[C@H](c2ccccc2)NC(=O)[C@H]([C@@H](C)CC)NC1=O) | 93 | 41 |  | isolated mass ([4]; scale 0.05 mmol): 15 mg
cyclo(CRLILF) (SMILES CC[C@H](C)[C@@H]1NC(=O)[C@H](CC(C)C)NC(=O)[C@H](CCCNC(=N)N)NC(=O)[C@H](CS)NC(=O)[C@H](Cc2ccccc2)NC(=O)[C@H](CC(C)C)NC1=O) | 99 | 57 |  | isolated mass ([1]; scale 0.1 mmol): 43 mg
cyclo(CRLIVF) (SMILES CC[C@H](C)[C@@H]1NC(=O)[C@H](CC(C)C)NC(=O)[C@H](CCCNC(=N)N)NC(=O)[C@H](CS)NC(=O)[C@H](Cc2ccccc2)NC(=O)[C@H](C(C)C)NC1=O) | 81 | 21 | 15 | 
cyclo(CRLI[Nle]F) (SMILES CCCC[C@@H]1NC(=O)[C@H]([C@@H](C)CC)NC(=O)[C@H](CC(C)C)NC(=O)[C@H](CCCNC(=N)N)NC(=O)[C@H](CS)NC(=O)[C@H](Cc2ccccc2)NC1=O) | 96 | 59 |  | isolated mass ([1]; scale 0.1 mmol): 44 mg

Substance | final HPLC purity [2, 5] [% purity] | isolated yield [2, 5] [% overall yield] | isolated mass ([4]; scale 0.1 mmol) [mg] | further results
cyclo(CRLI[Nva]F) (SMILES CCC[C@@H]1NC(=O)[C@H]([C@@H](C)CC)NC(=O)[C@H](CC(C)C)NC(=O)[C@H](CCCNC(=N)N)NC(=O)[C@H](CS)NC(=O)[C@H](Cc2ccccc2)NC1=O) | 97 | 44 |  | isolated mass ([1]; scale 0.1 mmol): 32 mg
cyclo(FSRLII) (SMILES CC[C@H](C)[C@@H]1NC(=O)[C@H](CC(C)C)NC(=O)[C@H](CCCNC(=N)N)NC(=O)[C@H](CO)NC(=O)[C@H](Cc2ccccc2)NC(=O)[C@H]([C@@H](C)CC)NC1=O) | 95 | 22 | 16 | 
cyclo(FTRLII) (SMILES CC[C@H](C)[C@@H]1NC(=O)[C@H](CC(C)C)NC(=O)[C@H](CCCNC(=N)N)NC(=O)[C@H]([C@@H](C)O)NC(=O)[C@H](Cc2ccccc2)NC(=O)[C@H]([C@@H](C)CC)NC1=O) | 94 | 35 | 26 | 
cyclo(F[Pen]RLII) (SMILES CC[C@H](C)[C@@H]1NC(=O)[C@H](CC(C)C)NC(=O)[C@H](CCCNC(=N)N)NC(=O)[C@H](C(C)(C)S)NC(=O)[C@H](Cc2ccccc2)NC(=O)[C@H]([C@@H](C)CC)NC1=O) |  |  |  | cyclisation yield ([2]; cyclisation step): 32%; step yield ([2]; late stage modification step): 78%; final HPLC purity ([2]; late stage modification step): 81% purity
cyclo([Abu]FCRLI) (SMILES CC[C@@H]1NC(=O)[C@H]([C@@H](C)CC)NC(=O)[C@H](CC(C)C)NC(=O)[C@H](CCCNC(=N)N)NC(=O)[C@H](CS)NC(=O)[C@H](Cc2ccccc2)NC1=O) | 97 | 67 |  | isolated mass ([1]; scale 0.1 mmol): 48 mg
cyclo([Aib]FCRLI) (SMILES CC[C@H](C)[C@@H]1NC(=O)[C@H](CC(C)C)NC(=O)[C@H](CCCNC(=N)N)NC(=O)[C@H](CS)NC(=O)[C@H](Cc2ccccc2)NC(=O)C(C)(C)NC1=O) | 99 | 25 | 18 | 
cyclo-CRLII(D-Phe) | 84 | 23 | 17 | 
cyclo-CRLIIF(4-Br) | 94 | 59 | 48 | 
cyclo-CRLIIF(4-Bz) | 99 | 55 | 47 | 
cyclo-CRLIIF(4-CF3) | 99 | 30 |  | isolated mass ([4]; scale 0.05 mmol): 12 mg
cyclo-CRLIIF(4-CN) | 86 | 49 | 38 | 
cyclo-CRLIIF(4-Cl) | 82 | 67 | 52 | 
cyclo-CRLIIF(4-F) | 87 | 57 | 43 | 
cyclo-CRLIIF(4-I) | 99 | 53 | 46 | 
cyclo-CRLIIF(4-NO2) | 99 | 57 |  | isolated mass ([4]; scale 0.2 mmol): 90 mg
cyclo-CRLIIY(Me) | 88 | 54 | 42 | 
